Eight molecules from doi:10.1101/2024.06.27.600789 can be followed below.

The chains behind the UniProt entries cited, without tags or fusion partners. Where a name states a change or a piece, a line headed by the entry shows the natural chain unless it says otherwise. A line that says so, or that is headed by a name, gives the form on record, which may keep a tag or linker. Residues count along the entry.
UniProt Q9UHB6: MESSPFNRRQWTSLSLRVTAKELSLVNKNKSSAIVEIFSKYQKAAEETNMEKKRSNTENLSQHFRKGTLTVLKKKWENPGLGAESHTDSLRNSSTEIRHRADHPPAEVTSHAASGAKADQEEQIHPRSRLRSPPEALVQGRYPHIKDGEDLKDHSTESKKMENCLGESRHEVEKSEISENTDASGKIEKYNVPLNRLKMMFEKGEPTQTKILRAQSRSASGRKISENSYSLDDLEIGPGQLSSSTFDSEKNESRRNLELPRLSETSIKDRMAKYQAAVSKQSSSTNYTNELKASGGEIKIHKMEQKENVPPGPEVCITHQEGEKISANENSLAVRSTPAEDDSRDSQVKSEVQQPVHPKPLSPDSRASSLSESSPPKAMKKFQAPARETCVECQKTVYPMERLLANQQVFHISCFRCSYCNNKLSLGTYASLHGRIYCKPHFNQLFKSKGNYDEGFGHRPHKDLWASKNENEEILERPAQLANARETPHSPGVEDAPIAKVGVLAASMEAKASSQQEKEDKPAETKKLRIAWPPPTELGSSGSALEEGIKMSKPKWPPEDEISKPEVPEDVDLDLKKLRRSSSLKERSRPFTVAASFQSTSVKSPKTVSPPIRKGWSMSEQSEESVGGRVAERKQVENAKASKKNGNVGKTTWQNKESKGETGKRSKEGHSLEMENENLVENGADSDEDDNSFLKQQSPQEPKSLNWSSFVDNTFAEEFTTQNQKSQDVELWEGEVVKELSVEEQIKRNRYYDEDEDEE
BirA*-tagged EPLINα (pPB-TagBFP-T2A-myc-BirA*-EPLINα): residues 161-759 of Q9UHB6
UniProt Q9ULV4: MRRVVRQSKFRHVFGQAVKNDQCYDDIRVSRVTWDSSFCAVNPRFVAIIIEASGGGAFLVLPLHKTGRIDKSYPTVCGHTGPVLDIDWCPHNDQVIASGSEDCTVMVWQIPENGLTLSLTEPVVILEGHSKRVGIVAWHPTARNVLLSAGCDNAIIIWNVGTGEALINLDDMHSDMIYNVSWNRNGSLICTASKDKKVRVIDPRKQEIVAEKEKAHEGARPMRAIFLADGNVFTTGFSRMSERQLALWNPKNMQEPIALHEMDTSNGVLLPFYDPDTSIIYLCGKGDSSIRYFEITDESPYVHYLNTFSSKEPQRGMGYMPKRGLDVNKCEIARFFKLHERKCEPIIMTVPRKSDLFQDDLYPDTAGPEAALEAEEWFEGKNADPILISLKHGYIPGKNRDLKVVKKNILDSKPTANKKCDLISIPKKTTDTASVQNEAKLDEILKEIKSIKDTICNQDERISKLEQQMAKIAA
UniProt Q14315: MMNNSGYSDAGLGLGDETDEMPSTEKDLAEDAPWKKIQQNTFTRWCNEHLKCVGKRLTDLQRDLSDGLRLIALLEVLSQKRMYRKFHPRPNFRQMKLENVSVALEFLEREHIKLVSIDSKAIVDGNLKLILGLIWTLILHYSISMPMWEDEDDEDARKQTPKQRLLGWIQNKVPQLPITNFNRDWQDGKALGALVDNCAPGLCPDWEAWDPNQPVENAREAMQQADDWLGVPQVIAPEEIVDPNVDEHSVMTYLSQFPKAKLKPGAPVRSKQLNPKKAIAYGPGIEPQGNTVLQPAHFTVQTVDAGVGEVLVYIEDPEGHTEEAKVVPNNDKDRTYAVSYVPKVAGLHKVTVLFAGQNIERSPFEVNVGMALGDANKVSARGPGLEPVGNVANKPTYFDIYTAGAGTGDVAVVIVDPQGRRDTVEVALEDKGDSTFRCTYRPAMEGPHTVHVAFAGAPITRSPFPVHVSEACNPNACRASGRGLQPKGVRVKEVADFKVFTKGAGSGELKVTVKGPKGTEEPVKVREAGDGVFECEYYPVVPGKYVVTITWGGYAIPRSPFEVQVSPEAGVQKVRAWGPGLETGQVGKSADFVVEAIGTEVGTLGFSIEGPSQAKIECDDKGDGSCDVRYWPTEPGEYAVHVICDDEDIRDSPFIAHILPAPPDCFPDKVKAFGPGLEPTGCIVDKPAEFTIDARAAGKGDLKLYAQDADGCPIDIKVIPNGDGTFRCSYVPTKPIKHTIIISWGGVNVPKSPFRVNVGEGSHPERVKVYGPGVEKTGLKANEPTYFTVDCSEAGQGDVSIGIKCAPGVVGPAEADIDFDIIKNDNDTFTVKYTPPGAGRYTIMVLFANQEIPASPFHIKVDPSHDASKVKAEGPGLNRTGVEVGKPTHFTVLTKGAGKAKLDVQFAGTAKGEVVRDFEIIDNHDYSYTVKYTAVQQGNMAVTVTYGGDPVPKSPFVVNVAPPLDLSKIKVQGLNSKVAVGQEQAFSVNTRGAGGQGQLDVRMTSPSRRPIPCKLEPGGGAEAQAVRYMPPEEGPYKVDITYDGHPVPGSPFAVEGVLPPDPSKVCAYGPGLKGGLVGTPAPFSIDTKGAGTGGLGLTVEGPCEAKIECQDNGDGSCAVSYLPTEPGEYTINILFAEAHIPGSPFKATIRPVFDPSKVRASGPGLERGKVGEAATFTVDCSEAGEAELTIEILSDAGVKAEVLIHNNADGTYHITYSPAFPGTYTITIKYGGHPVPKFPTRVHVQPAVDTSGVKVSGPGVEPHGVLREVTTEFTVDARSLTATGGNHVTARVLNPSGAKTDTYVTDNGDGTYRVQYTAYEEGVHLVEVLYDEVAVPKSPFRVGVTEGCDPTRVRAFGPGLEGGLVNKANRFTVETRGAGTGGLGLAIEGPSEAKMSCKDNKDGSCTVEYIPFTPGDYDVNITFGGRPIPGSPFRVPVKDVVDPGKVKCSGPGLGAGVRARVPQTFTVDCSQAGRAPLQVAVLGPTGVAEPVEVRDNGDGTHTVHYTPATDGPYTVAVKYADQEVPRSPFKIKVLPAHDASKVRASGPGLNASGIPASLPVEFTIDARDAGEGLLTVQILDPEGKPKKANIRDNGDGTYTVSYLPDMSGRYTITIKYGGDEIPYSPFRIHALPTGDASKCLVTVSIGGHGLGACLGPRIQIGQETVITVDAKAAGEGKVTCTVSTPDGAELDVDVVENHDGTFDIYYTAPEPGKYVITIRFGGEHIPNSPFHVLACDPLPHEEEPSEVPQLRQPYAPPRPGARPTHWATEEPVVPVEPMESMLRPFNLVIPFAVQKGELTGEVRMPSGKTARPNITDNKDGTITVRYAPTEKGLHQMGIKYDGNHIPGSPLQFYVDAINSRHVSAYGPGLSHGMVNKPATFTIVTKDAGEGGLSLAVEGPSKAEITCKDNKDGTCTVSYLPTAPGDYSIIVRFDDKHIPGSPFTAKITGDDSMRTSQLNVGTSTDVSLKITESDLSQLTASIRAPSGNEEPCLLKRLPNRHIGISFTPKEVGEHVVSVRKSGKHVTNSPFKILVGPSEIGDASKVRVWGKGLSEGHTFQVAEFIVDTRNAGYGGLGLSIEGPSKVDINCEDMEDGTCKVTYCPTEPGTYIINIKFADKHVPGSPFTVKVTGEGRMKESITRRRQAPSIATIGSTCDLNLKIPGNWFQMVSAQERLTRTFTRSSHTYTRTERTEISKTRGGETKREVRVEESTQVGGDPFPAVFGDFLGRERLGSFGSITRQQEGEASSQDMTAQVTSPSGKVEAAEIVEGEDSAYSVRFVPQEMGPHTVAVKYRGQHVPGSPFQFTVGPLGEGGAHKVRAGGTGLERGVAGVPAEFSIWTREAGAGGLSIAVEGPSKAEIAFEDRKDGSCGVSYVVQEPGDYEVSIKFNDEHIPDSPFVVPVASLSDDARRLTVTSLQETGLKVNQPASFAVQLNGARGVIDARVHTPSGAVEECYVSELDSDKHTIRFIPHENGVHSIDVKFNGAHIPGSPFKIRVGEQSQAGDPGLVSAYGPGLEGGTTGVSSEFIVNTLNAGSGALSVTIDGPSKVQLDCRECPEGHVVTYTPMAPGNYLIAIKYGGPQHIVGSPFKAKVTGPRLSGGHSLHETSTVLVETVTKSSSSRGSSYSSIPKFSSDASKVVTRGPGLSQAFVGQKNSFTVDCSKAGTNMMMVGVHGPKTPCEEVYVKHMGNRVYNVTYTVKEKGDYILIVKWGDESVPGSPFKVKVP
UniProt O43426: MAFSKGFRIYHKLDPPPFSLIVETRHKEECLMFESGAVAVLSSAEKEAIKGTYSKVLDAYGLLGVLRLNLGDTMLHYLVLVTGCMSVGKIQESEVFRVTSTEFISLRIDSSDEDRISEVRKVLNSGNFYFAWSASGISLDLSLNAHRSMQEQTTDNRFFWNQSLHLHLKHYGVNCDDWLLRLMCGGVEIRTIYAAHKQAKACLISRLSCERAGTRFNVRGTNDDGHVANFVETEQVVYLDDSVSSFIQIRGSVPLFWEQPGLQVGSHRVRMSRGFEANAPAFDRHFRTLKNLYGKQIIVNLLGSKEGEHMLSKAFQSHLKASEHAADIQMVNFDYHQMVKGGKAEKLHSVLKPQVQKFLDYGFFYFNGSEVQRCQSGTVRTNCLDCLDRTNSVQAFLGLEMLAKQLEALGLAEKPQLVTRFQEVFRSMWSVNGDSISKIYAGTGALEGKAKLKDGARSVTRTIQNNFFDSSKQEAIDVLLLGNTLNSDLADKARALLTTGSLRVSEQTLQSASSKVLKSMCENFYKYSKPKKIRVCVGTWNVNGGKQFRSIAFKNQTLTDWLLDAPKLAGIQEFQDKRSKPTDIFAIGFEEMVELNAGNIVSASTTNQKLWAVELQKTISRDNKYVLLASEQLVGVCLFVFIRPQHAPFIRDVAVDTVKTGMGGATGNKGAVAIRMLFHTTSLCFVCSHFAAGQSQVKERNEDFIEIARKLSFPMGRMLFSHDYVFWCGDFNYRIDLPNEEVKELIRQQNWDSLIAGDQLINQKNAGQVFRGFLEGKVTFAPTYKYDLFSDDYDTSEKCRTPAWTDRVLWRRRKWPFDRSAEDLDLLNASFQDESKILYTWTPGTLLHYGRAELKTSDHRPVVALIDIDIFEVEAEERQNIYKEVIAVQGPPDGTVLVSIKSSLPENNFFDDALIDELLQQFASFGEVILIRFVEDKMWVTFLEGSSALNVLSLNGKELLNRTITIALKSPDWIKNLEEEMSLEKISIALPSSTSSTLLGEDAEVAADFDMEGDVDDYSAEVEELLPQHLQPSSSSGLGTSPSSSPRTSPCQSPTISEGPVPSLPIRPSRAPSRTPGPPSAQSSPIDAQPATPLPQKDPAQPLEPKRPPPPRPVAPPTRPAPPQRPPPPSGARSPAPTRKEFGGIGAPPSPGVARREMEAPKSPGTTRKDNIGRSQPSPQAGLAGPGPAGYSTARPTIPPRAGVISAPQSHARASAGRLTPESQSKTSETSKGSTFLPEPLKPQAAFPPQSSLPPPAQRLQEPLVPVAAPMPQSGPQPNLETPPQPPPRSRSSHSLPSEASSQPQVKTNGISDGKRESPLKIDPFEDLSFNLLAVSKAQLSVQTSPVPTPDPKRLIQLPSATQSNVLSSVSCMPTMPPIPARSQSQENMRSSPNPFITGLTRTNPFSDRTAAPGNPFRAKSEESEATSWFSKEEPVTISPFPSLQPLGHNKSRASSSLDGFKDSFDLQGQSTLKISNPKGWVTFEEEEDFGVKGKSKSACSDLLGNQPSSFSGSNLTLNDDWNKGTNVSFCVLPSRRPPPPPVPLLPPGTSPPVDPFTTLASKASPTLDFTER

Where two headings read alike, the source gives them in different places. No constants are given. Whether binding was seen depends on the method and setting. In cells and extracts the contact can be indirect. Here binding means that the protein was enriched with, or labelled near, the bait; the list need not be complete.

What all share (experiment): proximity labelling
Test [1] addresses BirA*-tagged EPLINβ (pPB-TagBFP-T2A-myc-BirA*-EPLINβ) (human) (UniProt Q9UHB6).
Test [2] deals with BirA*-tagged EPLINα (pPB-TagBFP-T2A-myc-BirA*-EPLINα) (human) (UniProt Q9UHB6).
Test [3] shares this target. This is another data set of the same source.
In test [4] the target is BirA*-tagged EPLINβ (pPB-TagBFP-T2A-myc-BirA*-EPLINβ) (human) (UniProt Q9UHB6). The source holds these as a separate data set.

Regarding SHROOM3 (from UniProt Q8TF72 1-1996), in test [1], the binding result is reported as “binds”. Take “coronin 1C (CORO1C) (from UniProt Q9ULV4 1-474)”: the binding entry in test [2] and in test [1] was “binds” in each case. For filamin B (from UniProt O75369 1-2602), in test [1], the binding result is given as “binds”. filamin C (from UniProt Q14315 1-2725): the binding entry in test [1] was “binds”.

Regarding “lamellipodin (RAPH1) (from UniProt Q70E73 1-1250)”, the binding result in test [2] is given as “binds”. On the same count and under the same terms, as for “phosphatase SYNJ1 (from UniProt O43426 1-1573)”, the entry is “binds”.

B1: LASP1 (protein, UniProt Q14847 1-261)
chain: MNPNCARCGKIVYPTEKVNCLDKFWHKACFHCETCKMTLNMKNYKGYEKKPYCNAHYPKQSFTMVADTPENLRLKQQSELQSQVRYKEEFEKNKGKGFSVVADTPELQRIKKTQDQISNIKYHEEFEKSRMGPSGGEGMEPERRDSQDGSSYRRPLEQQQPHHIPTSAPVYQQPQQQPVAQSYGGYKEPAAPVSIQRSAPGGGGKRYRAVYDYSAADEDEVSFQDGDTIVNVQQIDDGWMYGTVERTGDTGMLPANYVEAI
With B1, in test [3], the binding entry was “binds”.

B2: calponin CNN2 (protein, UniProt Q99439 1-309)
chain: MSSTQFNKGPSYGLSAEVKNRLLSKYDPQKEAELRTWIEGLTGLSIGPDFQKGLKDGTILCTLMNKLQPGSVPKINRSMQNWHQLENLSNFIKAMVSYGMNPVDLFEANDLFESGNMTQVQVSLLALAGKAKTKGLQSGVDIGVKYSEKQERNFDDATMKAGQCVIGLQMGTNKCASQSGMTAYGTRRHLYDPKNHILPPMDHSTISLQMGTNKCASQVGMTAPGTRRHIYDTKLGTDKCDNSSMSLQMGYTQGANQSGQVFGLGRQIYDPKYCPQGTVADGAPSGTGDCPDPGEVPEYPPYYQEEAGY
As for B2, in test [4], the binding entry is recorded as “binds”.
